# Assay results from the supplement of paper PMC9135407.
# Where “and” joins values, the source holds several entries; their conditions need not be identical. Identical values can stand only once. Counter-ions that a name gives are not always drawn. ± gives the standard deviation of the averaged measurements. Some of the results follow. Plates or batches differ in their baseline, so values are only roughly comparable.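 Primary human stellate myofibroblasts activated in culture; inactivation shown by regained lipid droplets. Readout: fraction of Hoechst-counted cells exceeding a per-plate Bodipy threshold, duplicate wells, each plate with DMSO negative and nortriptyline positive controls. Hits: control-normalized score beyond the plate's top-tenth-percentile nortriptyline wells, or among its three best wells. Final well concentrations unstated.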
# System: primary human hepatic stellate cells (donor 1)
# Assay: percent Bodipy-positive cells; higher = more lipid droplet accumulation
# Details: 48 h
# Description: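 Primary lipid accumulation screen in primary human hepatic stellate cell myofibroblasts (donor 1, passage 8) in 384-well plates. 100 nL of library compound was pin-transferred into 30 µL medium in duplicate, and cells were treated for 48 h. The 'Scaled' score combines distance from plate baseline, toxicity and reproducibility penalties, and is normalised to nortriptyline (positive) and DMSO (negative) controls on each plate. A hit is defined as scaled >0.85 or among the top 3 wells per plate.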
# [1] = library stock concentration: 1 mM
# [2] = library stock concentration: 3.33 mM
# [3] = library stock concentration: 10 mM
# [4] = library stock concentration: 8.8 mM
# [5] = library stock concentration: 400 uM
# [6] = library stock concentration: 2 mM
# [7] = library stock concentration: 80 uM
smiles,measurement,setting,value
CCCCC[C@@H](O)/C=C/[C@@H]1[C@@H](C/C=C\CCCC(=O)O)[C@@H](O)C[C@H]1O [15(R)-Prostaglandin F2.alpha.],percent Bodipy-positive cells,[1],26.2 ± 7.7%
COc1ccc(-n2c(SCCCN3C(=O)c4cccc5cccc(c45)C3=O)nnc2-c2ccncc2)cc1,percent Bodipy-positive cells,[2],34.5 ± 6.8%
same,percent Bodipy-positive cells,[3],45.9 ± 4.5%
COc1cc2c(Nc3ccc(NC(=O)c4ccccc4)cc3)ncnc2cc1OCCCN1CCOCC1,percent Bodipy-positive cells,[3],98.37 ± 0.33%
CCCN(C/C=C/I)C1CCc2cccc(O)c2C1 (stereo unspecified) [8-Hydroxy-PIPAT oxalate],percent Bodipy-positive cells,[3],39.9 ± 16%
Cc1cccc(CC(=O)N2CCc3c2ccc(-c2cn(C)c4ncnc(N)c24)c3F)n1,percent Bodipy-positive cells,[2],9.16 ± 2.8%
same,percent Bodipy-positive cells,[3],45.1 ± 20%
CCN(CC)CCNC(C(=O)OCCC(C)C)c1ccccc1 (stereo unspecified),percent Bodipy-positive cells,[3],74.9 ± 6.9%
CCCCC[C@H](O)/C=C/[C@@H]1[C@@H](C/C=C\CCCC(=O)OC(C)C)[C@@H](O)C[C@H]1O [Prostaglandin F2.alpha. isopropyl ester],percent Bodipy-positive cells,[1],10.7 ± 1.1%
C[C@@H]1C[C@H]2[C@@H]3CCC4=CC(=O)C=C[C@]4(C)[C@@]3(F)[C@@H](O)C[C@]2(C)[C@@]1(O)C(=O)COP(=O)(O)O [Dexamethasone sodium phosphate],percent Bodipy-positive cells,[3],10.1 ± 0.31%
C(=C\c1ccccc1)/CN1CCN(C(c2ccccc2)c2ccccc2)CC1 [Cinnarazine],percent Bodipy-positive cells,library stock concentration: 5.4 mM,50.1 ± 7.2%
same,percent Bodipy-positive cells,[3],62.928 ± 0.05%
O=C1O/C(=C/Br)CC[C@@H]1c1cccc2ccccc12 [(R)-Bromoenol lactone],percent Bodipy-positive cells,[1],20.6 ± 3%
Cc1c(-c2cnccn2)ssc1=S [Oltipraz],percent Bodipy-positive cells,[4],5.74 ± 1%
NO [Hydroxylamine hydrochloride],percent Bodipy-positive cells,[3],37.7 ± 8.9%
Cc1cc(C)c(S(=O)(=O)Nc2ccccc2C(F)(F)F)c(C)c1,percent Bodipy-positive cells,[3],11.7 ± 3.9%
O=c1[nH]c2ccccc2n1CCCN1CCN(C(c2ccccc2)c2ccccc2)CC1 [Oxatomide],percent Bodipy-positive cells,library stock concentration: 4.7 mM,22.6 ± 0.11%
Nc1nc(Cl)nc2c1ncn2[C@@H]1O[C@H](CO)[C@@H](O)[C@H]1O,percent Bodipy-positive cells,[3],24.7 ± 4.7%
Nc1nc(Cl)nc2c1ncn2[C@@H]1O[C@H](CO)[C@@H](O)[C@H]1O [2-Chloroadenosine],percent Bodipy-positive cells,[3],85.5 ± 4.5%
O=c1c(O[C@@H]2O[C@H](CO)[C@H](O)[C@H](O)[C@H]2O)c(-c2ccc(O)c(O)c2)oc2cc(O)cc(O)c12,percent Bodipy-positive cells,[4],11 ± 2.1%
CC(C)[C@H](CO)Nc1nc(Nc2ccc(C(=O)O)c(Cl)c2)c2ncn(C(C)C)c2n1 [Purvalanol B],percent Bodipy-positive cells,[3],6.6 ± 1.6%
CC(C)[C@H](CO)Nc1nc(Nc2ccc(C(=O)O)c(Cl)c2)c2ncn(C(C)C)c2n1 [Purvalanol B (NG95) (0.4 mM)],percent Bodipy-positive cells,[5],20.9 ± 2.7%
CC(C)[C@H](CO)Nc1nc(Nc2ccc(C(=O)O)c(Cl)c2)c2ncn(C(C)C)c2n1 [Purvalanol B (NG95) (10 mM)],percent Bodipy-positive cells,[3],18.4 ± 6.5%
CC(C)[C@H](CO)Nc1nc(Nc2ccc(C(=O)O)c(Cl)c2)c2ncn(C(C)C)c2n1 [Purvalanol B (NG95) (2 mM)],percent Bodipy-positive cells,[6],18 ± 0.57%
"CCCCC/C=C\C=C\CCCCCCCCC(=O)O [10(E),12(Z)-Conjugated Linoleic Acid]",percent Bodipy-positive cells,[1],15.5 ± 2.2%
COc1cc2ncnc(Nc3ccc(F)c(Cl)c3)c2cc1OCCCN1CCOCC1 [Gefitinib (ZD1839)],percent Bodipy-positive cells,[3],84.4 ± 3.9%
Cn1cc(C2=C(c3ccc(Cl)cc3Cl)C(=O)NC2=O)c2ccccc21,percent Bodipy-positive cells,[3],75.1 ± 1.5%
CCCCCCCCCCCCCCCCCCCCCCCC(=O)NCCS(=O)(=O)O [N-Lignoceroyl Taurine],percent Bodipy-positive cells,[1],7.77 ± 1.1%
CC(C)OC(=O)OCOP(=O)(CO[C@H](C)Cn1cnc2c(N)ncnc21)OCOC(=O)OC(C)C [Tenofovir Disoproxil Fumarate],percent Bodipy-positive cells,[2],7.74 ± 4.3%
same,percent Bodipy-positive cells,[3],25.4 ± 3.4%
CN(C)CCOc1cc(-c2cn[nH]c2)ccc1NC(=O)C1COc2ccccc2O1 (stereo unspecified),percent Bodipy-positive cells,[3],85.8 ± 5.5%
Cl.O=C(NCCCCN1CCN(c2cccc(Cl)c2Cl)CC1)c1ccc2c(c1)Cc1ccccc1-2,percent Bodipy-positive cells,[3],59.8 ± 4.9%
Nc1cc(Cl)c(NC2=NCCN2)c(Cl)c1 [p-Aminoclonidine hydrochloride],percent Bodipy-positive cells,[3],45.8 ± 13%
CC[C@@H](C)Nc1cc(C(=O)N[C@H]2C[C@H]3CC[C@@H](C2)N3c2ccc(C(=O)C3CC3)cn2)c(C)cc1C(N)=O,percent Bodipy-positive cells,[2],83.4 ± 3.2%
O=C(O)c1ccccc1C(=O)Nc1ccc(S(=O)(=O)Nc2nccs2)cc1 [Phthalylsulfathiazole],percent Bodipy-positive cells,,9.95 ± 7.4%
same,percent Bodipy-positive cells,library stock concentration: 5 mM,15.82 ± 0.028%
same,percent Bodipy-positive cells,[3],24 ± 8.7%
C[N+](C)(C)CC(=O)O [Betaine hydrochloride],percent Bodipy-positive cells,[3],56.7% and 38.2%
same,percent Bodipy-positive cells,library stock concentration: 13 mM,22.8 ± 3.3%
CC(C)[C@H](NC(=O)CNC(=O)OC(C)(C)C)C(=O)N[C@H](C=O)C(C)C,percent Bodipy-positive cells,library stock concentration: 14 mM,21.2 ± 7.8%
CCS(=O)(=O)N1CCC[C@@H]2CN3CCc4cc(OC)ccc4[C@@H]3C[C@@H]21,percent Bodipy-positive cells,[3],7.36 ± 1.4%
Cc1cc(C)c(Nc2ccnc(Nc3ccc(C#N)cc3)n2)c(C)c1 [Dapivirine (TMC120)],percent Bodipy-positive cells,[3],89 ± 2.7%
"CCCCC/C=C\C/C=C\CCCC/C=C\CCCC(=O)O [5(Z),11(Z),14(Z)-Eicosatrienoic Acid]",percent Bodipy-positive cells,[1],10.6 ± 2.6%
"CC[C@H](CO)Nc1nc(NCc2ccccc2)c2ncn(C(C)C)c2n1 [R-roscovitine, CYC202, Seliciclib]",percent Bodipy-positive cells,[7],7.95 ± 0.78%
same,percent Bodipy-positive cells,[5],12 ± 4.1%
same,percent Bodipy-positive cells,[6],19.7 ± 3.1%
same,percent Bodipy-positive cells,[3],64.4 ± 12%
CC[C@H](CO)Nc1nc(NCc2ccccc2)c2ncn(C(C)C)c2n1 [Roscovitine],percent Bodipy-positive cells,[2],20.9 ± 1%
same,percent Bodipy-positive cells,[3],90.77 ± 0.42%
O=C(O)CCC/C=C\C[C@H]1C(=O)C=C[C@@H]1/C=C/[C@@H](O)CCc1ccccc1 [17-phenyl trinor Prostaglandin A2],percent Bodipy-positive cells,[1],11.8 ± 1.5%
CC(C)(C)OC(=O)N1CCC(OCc2nc(-c3ccncc3)no2)CC1,percent Bodipy-positive cells,[1],8.15 ± 0.086%
CC(CCCCC(=O)Nc1ccc(C(F)(F)F)cc1)NCCc1cnc[nH]1 (stereo unspecified) [HTMT dimaleate],percent Bodipy-positive cells,[3],36.7 ± 0.56%
Cc1ccc(NC(=O)c2cccc(C(C)(C)C#N)c2)cc1Nc1ccc2ncn(C)c(=O)c2c1,percent Bodipy-positive cells,[7],9.77 ± 5.3%
same,percent Bodipy-positive cells,[5],13.5 ± 7.3%
same,percent Bodipy-positive cells,[6],6.67 ± 2.6%
same,percent Bodipy-positive cells,[2],5.54 ± 0.081%
same,percent Bodipy-positive cells,[3],11.7% and 8.19%
O=C(/C=C\n1cnc(-c2cc(C(F)(F)F)cc(C(F)(F)F)c2)n1)N1CC(F)(F)C1,percent Bodipy-positive cells,[2],40 ± 6.3%
same,percent Bodipy-positive cells,[3],56.5 ± 2.9%
CC/C=C\C/C=C\C/C=C\C/C=C\C/C=C\C/C=C\CCC(=O)O[C@H](COCCCCCCCCCCCCCCCC)COP(=O)([O-])OCC[N+](C)(C)C [Docosahexaenoyl PAF C-16],percent Bodipy-positive cells,[1],8.38 ± 4.2%
CC(C)(C)[N+]([O-])=Cc1ccc(S(=O)(=O)O)cc1S(=O)(=O)O,percent Bodipy-positive cells,[2],4.9 ± 0.9%
same,percent Bodipy-positive cells,[3],11.7% and 7.45%
CN1CCN(C(c2ccccc2)c2ccccc2)CC1 [Cyclizine hydrochloride],percent Bodipy-positive cells,,67.6 ± 8.6%
CN1CCN(C(c2ccccc2)c2ccccc2)CC1 [Cyclizine],percent Bodipy-positive cells,library stock concentration: 7.5 mM,16.5 ± 4.3%
same,percent Bodipy-positive cells,[3],49.7 ± 0.84%
CN1CCN(C(c2ccccc2)c2ccccc2)CC1 [Cyclizine 2HCl],percent Bodipy-positive cells,[2],18.7 ± 1.6%
same,percent Bodipy-positive cells,[3],73.5 ± 5.8%
COC(=O)[C@@H]1CC2=CC(=O)CC[C@]2(C)[C@@]23O[C@@H]2C[C@@]2(C)[C@@H](CC[C@@]24CCC(=O)O4)[C@H]13 [Eplerenone],percent Bodipy-positive cells,[3],8.97 ± 2.4%
CC(C)OC(=O)C1=CN(C(=O)c2ccc(F)c(F)c2)CC(C)(C)c2c1[nH]c1ccccc21,percent Bodipy-positive cells,[2],12 ± 2.5%
same,percent Bodipy-positive cells,[3],38.8 ± 2.6%
Cc1ccc(F)c(NC(=O)Nc2ccc(-c3cccc4[nH]nc(N)c34)cc2)c1,percent Bodipy-positive cells,[7],20.2 ± 5%
same,percent Bodipy-positive cells,[5],17.9% and 24.6%
same,percent Bodipy-positive cells,[6],34.8% and 46.1%
same,percent Bodipy-positive cells,[3],47.8 ± 0.8%
Cc1ccc(F)c(NC(=O)Nc2ccc(-c3cccc4[nH]nc(N)c34)cc2)c1 [Linifanib (ABT-869)],percent Bodipy-positive cells,[2],19.3 ± 12%
same,percent Bodipy-positive cells,[3],61.5 ± 11%
C[C@]12CC[C@@H]3c4ccc(OC(=O)c5ccccc5)cc4CC[C@H]3[C@@H]1CC[C@@H]2O [Estradiol Benzoate],percent Bodipy-positive cells,[2],7.7 ± 1.7%
same,percent Bodipy-positive cells,[3],45.7 ± 6.5%
C[C@]12CC[C@@H]3c4ccc(OC(=O)c5ccccc5)cc4CC[C@H]3[C@@H]1CC[C@@H]2O [Estradiol benzoate],percent Bodipy-positive cells,library stock concentration: 5.3 mM,17.1 ± 3.5%
O=C(Nc1ccncc1)c1cc([N+](=O)[O-])ccc1Cl,percent Bodipy-positive cells,[1],17.7 ± 9.5%
same,percent Bodipy-positive cells,[2],13.2 ± 0.63%
Cc1cc(NC(=O)Nc2ccc3c(ccn3C)c2)sn1,percent Bodipy-positive cells,[3],47.1 ± 1.3%
CCCCCCNC(=O)Nc1ccc(S(=O)(=O)Nc2ccc(CCNC[C@H](O)COc3ccc(O)cc3)cc2)cc1,percent Bodipy-positive cells,[3],34 ± 1.7%
O=C1OC[C@H](Cc2cccc(O)c2)[C@H]1Cc1cccc(O)c1,percent Bodipy-positive cells,[1],14.6 ± 3.9%
O=C(CCCN1CCN(c2ccccn2)CC1)c1ccc(F)cc1 [Azaperone],percent Bodipy-positive cells,,12 ± 8.9%
same,percent Bodipy-positive cells,[2],12.9 ± 8.1%
same,percent Bodipy-positive cells,library stock concentration: 6.1 mM,13.3% and 21.3%
same,percent Bodipy-positive cells,[3],41.5% and 35.3%
C[C@H](CCC(=O)O)[C@H]1CC[C@H]2[C@@H]3[C@@H](O)C[C@@H]4C[C@H](O)CC[C@]4(C)[C@H]3CC[C@]12C [Ursodiol],percent Bodipy-positive cells,[2],11 ± 2.4%
same,percent Bodipy-positive cells,library stock concentration: 5.1 mM,18.2 ± 2.2%
same,percent Bodipy-positive cells,[3],8.42% and 28.5%
C[C@H](CCC(=O)O)[C@H]1CC[C@H]2[C@@H]3[C@@H](O)C[C@@H]4C[C@H](O)CC[C@]4(C)[C@H]3CC[C@]12C [Urosiol],percent Bodipy-positive cells,,2.85 ± 0.24%
C[C@@H](O)[C@@H]1NC(=O)[C@H](CCCCN)NC(=O)[C@@H](Cc2c[nH]c3ccccc23)NC(=O)[C@H](Cc2ccccc2)NC(=O)[C@@H](NC(=O)[C@H](N)Cc2ccccc2)CSSC[C@@H](C(=O)N[C@H](CO)[C@@H](C)O)NC1=O [Octreotide],percent Bodipy-positive cells,[6],10.6 ± 0.45%
C#C[C@]1(O)CC[C@H]2[C@@H]3CCC4=CCCC[C@@H]4[C@H]3CC[C@@]21C [Lynestrenol],percent Bodipy-positive cells,,30.3 ± 9.8%
CCCCCCCCCCCCCCCCOCC(COP(=O)(O)OCC[N+](C)(C)C)OCC (stereo unspecified) [2-O-ethyl PAF C-16],percent Bodipy-positive cells,[1],8.16 ± 1.6%
"CN(C)C(N)=NCCC[C@H](N)C(=O)O [N^G,N^G-Dimethylarginine hydrochloride]",percent Bodipy-positive cells,[3],38.8 ± 6.8%
COC(=O)C1=C(C#N)NC(C)=C(C(=O)OC(C)C)C1c1cccc([N+](=O)[O-])c1 (stereo unspecified) [Nilvadipine],percent Bodipy-positive cells,[2],23.8 ± 16%
same,percent Bodipy-positive cells,[3],22.1 ± 11%
N#Cc1cc2nc(O)c(O)nc2cc1[N+](=O)[O-] [CNQX disodium salt],percent Bodipy-positive cells,[3],5.65 ± 0.76%
N#Cc1cc2nc(O)c(O)nc2cc1[N+](=O)[O-] [CNQX disodium],percent Bodipy-positive cells,[3],43 ± 3.6%
CCCCCCCCCCCCCCCCCCOCC(O)COP(=O)([O-])OCC[N+](C)(C)C (stereo unspecified),percent Bodipy-positive cells,[1],14.7 ± 0.83%
